Construct, isoform or probe ends are uncertain for at least one entry. A negative result means that nothing was seen under these conditions.
Tested on: Nucb1 (Nucleobindin-1)
Assay: EMSA
Settings: 2 uM oligo

Sequence	binding result
TTTCTCTCTTTTAACGTGGGGGATAATAAT (double strand) [E3 (non-E-box AACGTG)]	no binding
TTTCTCTCTTTTCACGAGGGGGATAATAAT (double strand) [E2 (non-E-box CACGAG)]	no binding

— paper doi:10.1101/566836
